The experiment can be described thus: qHTS Assay for Modulators of Lamin A Splicing. To be noted: HeLa LMNA splicing GFP/RFP minigene ratio, 48 h. Summed up: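 Read-out is the ratio of GFP to DsRed2 object intensity, acquired by 488 nm laser-scanning cytometry on HeLa lamin A-EGFP minigene reporter cells. Compound incubation 48 hrs at 37 °C in Opti-MEM with 2% FBS; DMSO 0.5% final.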
[1] abbreviates: measured here: GFP splicing reporter channel.
The mark [2] stands for this setting: measured here: RFP viability control channel.

The results in this text go back to PubChem BioAssay AID1487 (National Center for Advancing Translational Sciences (NCATS), 2009).

Some of the results follow. These are further read-outs of the screen, such as a control signal, another cell line or another target. No call is given for them. Compounds called inactive in the main read-out are mostly missing here. Words in brackets tell the shape of the fitted curve; partial curves, single points and poor fits give uncertain potencies.

Take `CS(=O)(=O)NN1C(=O)c2ccccc2NC12CCCC2`: the AC50 (as a rule, the midpoint of the concentration-response curve, whichever way the signal moves) is, setting by setting: under setting [1], 0.282 µM [falling, full curve, poor fit]; under setting [2], 0.0126 µM [falling, full curve, poor fit].
With `COc1ccccc1NC(=O)c1ccc(NC(=O)COC(=O)CCC2CCCC2)cc1`, the AC50 is 0.0251 µM [falling, full curve, poor fit] under setting [1] and 0.2 µM [falling, full curve, poor fit] under setting [2].
On to `CCNc1nc(NCC)nc(SCCOc2ccc(C)cc2)n1`, for which the concentration at half-maximal activity (AC50) is 14.1 µM [rising, partial curve] under setting [1] and 15.8 µM [rising, partial curve] under setting [2].
On to `CCOC(=O)N1CCC(NC(=O)CS(=O)(=O)Cc2nc(-c3ccccc3C)oc2C)CC1`, for which the AC50 runs as follows: under setting [1], 17.8 µM [rising, single point]; under setting [2], 35.5 µM [rising, single point].
As for `O=C(NC1CCCCCCC1)c1ccccc1-c1ccccc1`, the AC50 under setting [1] is 22.4 µM [rising, partial curve, poor fit] and the AC50 under setting [2] is 35.5 µM [rising, single point].
Take `O=C(c1ccccc1Br)N1CCN(c2ccccc2)CC1`: the AC50 by setting is: under setting [1], 22.4 µM [falling, single point]; under setting [2], 35.5 µM [falling, single point].
For the compound `O=C(NC1CCCCC1)N1CCSC1=Nc1ccccc1`, the concentration at half-maximal activity (AC50) under setting [2] is 14.1 µM [rising, single point].
Take `CCN(CC)S(=O)(=O)c1cc(NC(=O)COc2ccc(C#N)cc2OC)ccc1C`: the AC50 runs as follows: under setting [1], 20 µM [rising, single point]; under setting [2], 22.4 µM [rising, partial curve].
Turning to `Cc1ccc(N(C)S(=O)(=O)c2ccc3[nH]c4c(c3c2)CCCC4)cc1`, the AC50 under setting [2] is 11.2 µM [rising, partial curve, poor fit].
As for `Cc1ccc(CN/C=C/C(=O)c2ccc(Br)cc2)cc1`, the AC50 is 10 µM [rising, partial curve] under setting [1] and 12.6 µM [rising, single point] under setting [2].
On to `O=C(COc1ccccc1)NCc1ccc2c(c1)CCN2C(=O)c1ccccc1`, for which the AC50 under setting [1] is 10 µM [rising, single point] and the AC50 under setting [2] is 10 µM [rising, partial curve].
Consider `CC(NC(=O)c1ccc(NC(=O)c2nsc3ccccc23)cc1)c1ccccc1` (stereo not drawn), for which the AC50 under setting [1] is 0.447 µM [rising, partial curve, poor fit] and the AC50 under setting [2] was 0.501 µM [rising, partial curve, poor fit].
Take `OC(COC(c1ccccc1)c1ccccc1)CN1CCN(c2ccccn2)CC1` (stereo not drawn): the AC50 was 15.8 µM [rising, single point] under setting [1] and 22.4 µM [rising, single point] under setting [2].
For `COC(=O)c1ccc(C(=O)OC)c(NC(=O)CN(C)Cc2ccccc2)c1`, the AC50 is 12.6 µM [rising, partial curve] under setting [1] and 12.6 µM [rising, partial curve] under setting [2].
Regarding `N#Cc1cc(NC(=O)c2ccc(F)cc2)c(=O)n2c1[nH]c1ccccc12`, the AC50 under setting [2] is 11.2 µM [rising, single point].
As for `COc1cc(/C=C2\SC(=O)N(Cc3ccc(Cl)cc3)C2=O)cc([N+](=O)[O-])c1O`, the half-maximal activity concentration (AC50) under setting [1] is 2.24 µM [falling, single point].
For the compound `CN1/C(=C\P(=O)(N(C)C)N(C)C)C(C)(C)c2ccccc21`, the AC50 under setting [2] was 14.1 µM [rising, single point].
Regarding `S=C(Nc1ccc(Cl)cc1Cl)N1CCCCC1`, the AC50 by setting is: under setting [1], 5.01 µM [rising, partial curve]; under setting [2], 15.8 µM [rising, partial curve].
Turning to `CCN(CCNC(=O)CS(=O)(=O)Cc1nc(-c2cccc(OC)c2)oc1C)c1ccccc1`, under setting [2], the AC50 was 2.51 µM [rising, partial curve, poor fit].
For `COc1ccccc1-c1nc(C#N)c(N2CCC(Cc3ccccc3)CC2)o1`, the AC50 under setting [2] was 11.2 µM [rising, partial curve].
Consider `CCOc1nc(SCCOc2ccc(Cl)cc2Cl)nc(N(C)C)n1`, for which the AC50 is, setting by setting: under setting [1], 14.1 µM [rising, single point]; under setting [2], 25.1 µM [rising, single point].
Regarding `Cc1cccc(C(=O)Nc2cccc(OCc3cc(=O)n4cccc(C)c4n3)c2)c1`, the half-maximal activity concentration (AC50) under setting [1] is 0.708 µM [rising, single point].
Still for that read-out and setting: the result for `COc1ccc(Nc2cc(C(=O)N3CCc4ccccc4C3)c3ccccc3n2)c(OC)c1` reads 35.5 µM [falling, single point].
As for `COc1ccc(/C=N/NC(=O)CCn2cnc(-c3ccccc3)c2-c2ccccc2)cc1OC`, the AC50 runs as follows: under setting [1], 17.8 µM [rising, partial curve, poor fit]; under setting [2], 7.08 µM [rising, partial curve].
As to `Cc1nnc(N2CCCC(C(=O)Nc3cccc(C(F)(F)F)c3)C2)c2nn(-c3ccccc3)c(C)c12` (stereo not drawn), the AC50 under setting [1] is 25.1 µM [falling, single point] and the AC50 under setting [2] was 35.5 µM [falling, single point].
As for `CCNS(=O)(=O)c1ccc(NC(=O)Nc2cccc(OC)c2)cc1`, the AC50 under setting [2] is 35.5 µM [rising, single point].
The same measure, in the same setting: the result for `O=C(Nc1cccc(Cl)c1)c1cc(-c2ccc3c(c2)OCCO3)on1` reads 0.794 µM [falling, full curve, poor fit].
As for `CCC(=O)c1ccc(OCC(O)Cn2c(C)nc3ccccc32)cc1` (stereo not drawn), the AC50 was 5.01 µM [rising, partial curve, poor fit] under setting [1] and 6.31 µM [rising, partial curve] under setting [2].
`COc1ccc2[nH]c(C)c(CCNC(=S)Nc3cccc(C)c3)c2c1`: the half-maximal activity concentration (AC50) under setting [1] was 35.5 µM [rising, single point] and the AC50 under setting [2] was 31.6 µM [rising, single point].
For `CN1N=C(c2ccc(F)c(F)c2)CSC1=NCc1ccccc1`, the AC50 under setting [2] was 35.5 µM [rising, single point].
For the compound `Cc1ccc(S(=O)(=O)N(C)CC(=O)O/N=C(\N)c2cccc([N+](=O)[O-])c2)cc1`, under setting [2], the AC50 is 35.5 µM [rising, single point].
As for `Cc1csc(NC(=O)c2cc3c(s2)CCCCC3)n1`, under setting [2], the AC50 was 14.1 µM [rising, single point].
For `Cc1ccc(N=Nc2c(C)[nH]n(C(N)=S)c2=O)cc1C`, under setting [2], the concentration at half-maximal activity (AC50) was 0.447 µM [rising, full curve, poor fit].
On the same count and under the same terms, the result for `Cc1ccc(C(=O)Nc2cccc(C(=O)NCc3ccccc3)c2)o1` reads 0.0178 µM [falling, full curve, poor fit].
Regarding `O=C(CNC(=O)C1CCCCC1)Nc1ccc(F)c(Cl)c1`, the AC50 under setting [1] is 1.12 µM [falling, single point].
Regarding `Cc1noc(C)c1COc1cccc(C(=O)N2CCN(C/C=C/c3ccccc3)CC2)c1`, the AC50 under setting [2] was 35.5 µM [rising, single point].
With `COc1ccc(NC(=O)c2ccc3c(c2)OCO3)cc1[N+](=O)[O-]`, the AC50 under setting [1] is 2.82 µM [falling, full curve, poor fit].
On the same count and under the same terms, with `Cc1nnc(NC(=O)CSc2nc3c([nH]c4ccccc43)c(=O)n2-c2ccccc2)s1` the figure was 22.4 µM [falling, partial curve, poor fit].
As to `Cc1cc[n+](-c2nc3ccccc3nc2C(=C=[N-])C#N)cc1`, the AC50 under setting [2] is 0.00447 µM [rising, full curve, poor fit].
Take `Cc1cc(C)cc(C(=O)NCC(=O)OCC(=O)NCc2ccco2)c1`: the concentration at half-maximal activity (AC50) under setting [2] is 8.91 µM [falling, partial curve, poor fit].
On the same count and under the same terms, with `COc1ccc(C2=NN(C(=O)/C=C/c3ccccc3)C(c3ccccc3)C2)c(OC(C)=O)c1` (stereo not drawn) the figure was 12.6 µM [rising, single point].
As for `COc1ccccc1-n1cnnc1SCC(=O)Nc1cccc(S(=O)(=O)N2CCCCC2)c1`, the AC50 is 12.6 µM [rising, single point] under setting [1] and 22.4 µM [rising, partial curve] under setting [2].
As for `O=C(NNc1nc(-c2ccc(Cl)cc2)cs1)c1ccco1`, the AC50 was 0.891 µM [rising, single point] under setting [1] and 25.1 µM [rising, single point] under setting [2].
On to `CC1(C)CC(=O)C2=C(C1)NC1=C(C(=O)c3ccccc31)C2c1ccccc1` (stereo not drawn), for which, under setting [2], the AC50 was 20 µM [rising, partial curve, poor fit].
Take `CCC(Sc1nc2ccccc2c2nc(CCn3cncc3C)nn12)C(=O)Nc1cccc(OC)c1` (stereo not drawn): under setting [1], the AC50 is 6.31 µM [rising, single point].
Regarding `Fc1cccc(Cc2noc(CN3CCC(c4ccncc4)CC3)n2)c1`, the AC50 under setting [1] is 0.2 µM [falling, full curve] and the AC50 under setting [2] is 0.355 µM [falling, full curve].
Take `COc1ccc(Cn2c(CNC(=O)c3ccc(N(C)C)cc3)nc3cccnc32)cc1`: the AC50 under setting [1] is 0.0631 µM [falling, full curve].
For the compound `COc1ccc2c(CN(C)c3ccccc3)cc(=O)oc2c1`, the AC50 under setting [2] was 12.6 µM [rising, single point].
For `C=C(C)COc1ccc(-c2[nH]ncc2-c2ccccc2OC)c(O)c1`, the concentration at half-maximal activity (AC50) under setting [1] was 31.6 µM [rising, single point].
On to `CCC(=O)N1CCc2cc(S(=O)(=O)NCCC(=O)N3CCc4ccccc4C3)ccc21`, for which the AC50 by setting is: under setting [1], 17.8 µM [rising, partial curve]; under setting [2], 15.8 µM [rising, single point].
Turning to `CCn1c(=NC(=O)c2ccc3c(c2)OCCO3)sc2c(C)ccc(OC)c21`, the AC50 under setting [1] is 0.316 µM [rising, partial curve, poor fit].
Regarding `CCN(CC)c1ccc(NC(=O)/C=C/c2cc(Br)ccc2OC)cc1`, the AC50 was 15.8 µM [falling, single point] under setting [1] and 12.6 µM [falling, single point] under setting [2].
`O=C1CN(/N=C\c2ccc([N+](=O)[O-])o2)C(=O)N1`: the AC50 was 0.00355 µM [falling, full curve] under setting [1] and 0.00282 µM [falling, full curve] under setting [2].
On to `Cc1ccc(C)c2[nH]c(=O)c(CN(Cc3ccco3)S(=O)(=O)c3ccc4c(c3)OCCO4)cc12`, for which the AC50 under setting [2] was 31.6 µM [rising, single point].
